{"source": "PubChem BioAssay AID1159578 (Peter MacCallum Cancer Centre, 2015)", "assay": "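Genome-wide hunt for genes controlling movement of lymphatic endothelial cells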 (primary screen)", "system": "human lymphatic endothelial cells", "reagent": "siRNA pool against human genes, 40 nM", "timing": "48 h after transfection", "read-out": "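Cells stained with dye and imaged after a scratch; covered wound area and nuclei counted, duplicates averaged, migration set against mock wells and turned into a robust z-score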", "reading the numbers": "migration robust z-score: higher = faster migration into the scratch; nuclei per well: higher = more cells in the well", "rule for the call": "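Pools averaging fewer than 3300 nuclei are never called; remaining pools count as changed when migration robust z lies outside -2 to 2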", "calls": "active = migration changed; inactive = no migration change, or too few cells", "note": "Here is an unselected part of about 18,000 reagents tested. About 1,030 of all reagents (5.7%) were called active. 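Inactive calls also include pools with fewer than 3300 nuclei, whose migration was not assessed.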 Raw values are not corrected between plates. Further read-outs or replicates are left out here. No sequences are given here."}
{"Target gene": "SND1", "migration robust z-score": 0.23, "migration class with cell-count check": "migration z between -2 and 2; enough cells", "nuclei per well, duplicate mean": 6826, "outcome": "inactive"}
{"Target gene": "SEC23B", "migration robust z-score": -0.11, "migration class with cell-count check": "migration z between -2 and 2; enough cells", "nuclei per well, duplicate mean": 4812, "outcome": "inactive"}
{"Target gene": "GNRH2", "migration robust z-score": 0.56, "migration class with cell-count check": "migration z between -2 and 2; enough cells", "nuclei per well, duplicate mean": 6150, "outcome": "inactive"}
{"Target gene": "AP2A2", "migration robust z-score": -1.22, "migration class with cell-count check": "migration z between -2 and 2; enough cells", "nuclei per well, duplicate mean": 5294, "outcome": "inactive"}
{"Target gene": "LACTB", "migration robust z-score": 0.54, "migration class with cell-count check": "migration z between -2 and 2; enough cells", "nuclei per well, duplicate mean": 6366, "outcome": "inactive"}
{"Target gene": "RPL38", "migration robust z-score": -0.16, "migration class with cell-count check": "migration z between -2 and 2; enough cells", "nuclei per well, duplicate mean": 3967, "outcome": "inactive"}
{"Target gene": "KPNA6", "migration robust z-score": 0.57, "migration class with cell-count check": "migration z between -2 and 2; enough cells", "nuclei per well, duplicate mean": 6855, "outcome": "inactive"}
{"Target gene": "PDCD2L", "migration robust z-score": -0.72, "migration class with cell-count check": "migration z between -2 and 2; enough cells", "nuclei per well, duplicate mean": 6712, "outcome": "inactive"}
{"Target gene": "TRIM60", "migration robust z-score": 0.65, "migration class with cell-count check": "migration z between -2 and 2; enough cells", "nuclei per well, duplicate mean": 6217, "outcome": "inactive"}
{"Target gene": "PAEP", "migration robust z-score": 0.1, "migration class with cell-count check": "migration z between -2 and 2; enough cells", "nuclei per well, duplicate mean": 6978, "outcome": "inactive"}
{"Target gene": "TBC1D3G", "migration robust z-score": -0.73, "migration class with cell-count check": "migration z between -2 and 2; enough cells", "nuclei per well, duplicate mean": 6466, "outcome": "inactive"}
{"Target gene": "LIN28B", "migration robust z-score": 1.12, "migration class with cell-count check": "migration z between -2 and 2; enough cells", "nuclei per well, duplicate mean": 5972, "outcome": "inactive"}
{"Target gene": "ERLIN1", "migration robust z-score": 2.26, "migration class with cell-count check": "migration z above 2; enough cells", "nuclei per well, duplicate mean": 7158, "outcome": "active"}
{"Target gene": "KCNK9", "migration robust z-score": 0.18, "migration class with cell-count check": "migration z between -2 and 2; enough cells", "nuclei per well, duplicate mean": 5376, "outcome": "inactive"}
{"Target gene": "CMPK2", "migration robust z-score": -0.06, "migration class with cell-count check": "migration z between -2 and 2; enough cells", "nuclei per well, duplicate mean": 5508, "outcome": "inactive"}
{"Target gene": "MLNR", "migration robust z-score": -0.91, "migration class with cell-count check": "migration z between -2 and 2; enough cells", "nuclei per well, duplicate mean": 4774, "outcome": "inactive"}
{"Target gene": "PRDM4", "migration robust z-score": -0.39, "migration class with cell-count check": "migration z between -2 and 2; enough cells", "nuclei per well, duplicate mean": 6304, "outcome": "inactive"}
{"Target gene": "FASTKD2", "migration robust z-score": -2.66, "migration class with cell-count check": "under 3300 nuclei; migration not judged", "nuclei per well, duplicate mean": 2704, "outcome": "inactive"}
{"Target gene": "ZNF552", "migration robust z-score": -1.7, "migration class with cell-count check": "migration z between -2 and 2; enough cells", "nuclei per well, duplicate mean": 5334, "outcome": "inactive"}
{"Target gene": "LHCGR", "migration robust z-score": 0.31, "migration class with cell-count check": "migration z between -2 and 2; enough cells", "nuclei per well, duplicate mean": 6280, "outcome": "inactive"}
{"Target gene": "FAM135A", "migration robust z-score": -2, "migration class with cell-count check": "migration z between -2 and 2; enough cells", "nuclei per well, duplicate mean": 5960, "outcome": "inactive"}
{"Target gene": "GPR17", "migration robust z-score": -0.11, "migration class with cell-count check": "migration z between -2 and 2; enough cells", "nuclei per well, duplicate mean": 5106, "outcome": "inactive"}
{"Target gene": "CD68", "migration robust z-score": -1.52, "migration class with cell-count check": "migration z between -2 and 2; enough cells", "nuclei per well, duplicate mean": 4757, "outcome": "inactive"}
{"Target gene": "SRSF2", "migration robust z-score": 0.49, "migration class with cell-count check": "migration z between -2 and 2; enough cells", "nuclei per well, duplicate mean": 5530, "outcome": "inactive"}
{"Target gene": "L3MBTL3", "migration robust z-score": 0.27, "migration class with cell-count check": "migration z between -2 and 2; enough cells", "nuclei per well, duplicate mean": 3834, "outcome": "inactive"}
{"Target gene": "DNAH5", "migration robust z-score": -0.83, "migration class with cell-count check": "migration z between -2 and 2; enough cells", "nuclei per well, duplicate mean": 6326, "outcome": "inactive"}
{"Target gene": "CCDC87", "migration robust z-score": 0.34, "migration class with cell-count check": "migration z between -2 and 2; enough cells", "nuclei per well, duplicate mean": 5782, "outcome": "inactive"}

2 of these entries, set out differently.
Target gene | migration robust z-score | migration class with cell-count check | nuclei per well, duplicate mean | outcome
KPNA6 | 0.57 | migration z between -2 and 2; enough cells | 6855 | inactive
PDCD2L | -0.72 | migration z between -2 and 2; enough cells | 6712 | inactive
